Measured values taken from the supplement of paper PMC6411743.
± gives the standard deviation of the averaged measurements. Some of the results follow.

The chains behind the UniProt entries cited, without tags or fusion partners. Where a name states a change or a piece, a line headed by the entry shows the natural chain unless it says otherwise.
UniProt Q06547, whole entry: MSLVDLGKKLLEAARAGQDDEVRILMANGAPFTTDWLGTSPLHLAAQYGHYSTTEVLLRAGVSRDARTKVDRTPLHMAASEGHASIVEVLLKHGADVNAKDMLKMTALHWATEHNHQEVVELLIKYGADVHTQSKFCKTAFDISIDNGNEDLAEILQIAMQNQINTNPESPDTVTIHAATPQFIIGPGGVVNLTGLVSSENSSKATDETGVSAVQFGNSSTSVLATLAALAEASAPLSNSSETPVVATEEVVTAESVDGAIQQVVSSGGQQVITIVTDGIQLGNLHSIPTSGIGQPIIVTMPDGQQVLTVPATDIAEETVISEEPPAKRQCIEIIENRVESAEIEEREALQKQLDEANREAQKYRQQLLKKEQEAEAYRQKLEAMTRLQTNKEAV
UniProt Q08752, whole entry: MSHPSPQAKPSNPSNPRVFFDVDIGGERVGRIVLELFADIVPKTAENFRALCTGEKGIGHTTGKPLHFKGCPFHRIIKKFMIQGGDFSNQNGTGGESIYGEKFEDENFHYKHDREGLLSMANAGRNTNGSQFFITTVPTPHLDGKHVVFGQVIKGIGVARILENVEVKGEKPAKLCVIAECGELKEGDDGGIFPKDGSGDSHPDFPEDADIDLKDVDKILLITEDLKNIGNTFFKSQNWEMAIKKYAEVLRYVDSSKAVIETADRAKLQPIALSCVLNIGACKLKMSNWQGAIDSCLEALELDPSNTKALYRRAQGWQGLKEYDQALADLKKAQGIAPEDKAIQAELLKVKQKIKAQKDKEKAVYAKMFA
UniProt Q14258, whole entry: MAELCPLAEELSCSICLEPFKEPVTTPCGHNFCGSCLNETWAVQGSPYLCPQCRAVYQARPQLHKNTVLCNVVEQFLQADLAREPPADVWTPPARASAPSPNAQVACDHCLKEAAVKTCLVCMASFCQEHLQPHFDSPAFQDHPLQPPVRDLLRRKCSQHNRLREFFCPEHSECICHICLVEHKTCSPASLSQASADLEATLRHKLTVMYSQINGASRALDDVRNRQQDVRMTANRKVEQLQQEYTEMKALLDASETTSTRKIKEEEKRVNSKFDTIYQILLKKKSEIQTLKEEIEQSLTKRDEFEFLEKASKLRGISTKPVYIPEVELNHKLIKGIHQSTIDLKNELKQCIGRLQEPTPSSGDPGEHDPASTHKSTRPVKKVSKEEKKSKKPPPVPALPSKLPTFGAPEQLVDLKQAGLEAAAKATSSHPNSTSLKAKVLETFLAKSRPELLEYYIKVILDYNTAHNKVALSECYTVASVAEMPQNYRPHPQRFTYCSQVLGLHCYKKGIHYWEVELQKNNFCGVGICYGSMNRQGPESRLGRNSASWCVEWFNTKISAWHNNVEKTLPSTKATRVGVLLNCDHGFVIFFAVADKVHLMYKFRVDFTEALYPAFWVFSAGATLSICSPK
UniProt Q01082, whole entry: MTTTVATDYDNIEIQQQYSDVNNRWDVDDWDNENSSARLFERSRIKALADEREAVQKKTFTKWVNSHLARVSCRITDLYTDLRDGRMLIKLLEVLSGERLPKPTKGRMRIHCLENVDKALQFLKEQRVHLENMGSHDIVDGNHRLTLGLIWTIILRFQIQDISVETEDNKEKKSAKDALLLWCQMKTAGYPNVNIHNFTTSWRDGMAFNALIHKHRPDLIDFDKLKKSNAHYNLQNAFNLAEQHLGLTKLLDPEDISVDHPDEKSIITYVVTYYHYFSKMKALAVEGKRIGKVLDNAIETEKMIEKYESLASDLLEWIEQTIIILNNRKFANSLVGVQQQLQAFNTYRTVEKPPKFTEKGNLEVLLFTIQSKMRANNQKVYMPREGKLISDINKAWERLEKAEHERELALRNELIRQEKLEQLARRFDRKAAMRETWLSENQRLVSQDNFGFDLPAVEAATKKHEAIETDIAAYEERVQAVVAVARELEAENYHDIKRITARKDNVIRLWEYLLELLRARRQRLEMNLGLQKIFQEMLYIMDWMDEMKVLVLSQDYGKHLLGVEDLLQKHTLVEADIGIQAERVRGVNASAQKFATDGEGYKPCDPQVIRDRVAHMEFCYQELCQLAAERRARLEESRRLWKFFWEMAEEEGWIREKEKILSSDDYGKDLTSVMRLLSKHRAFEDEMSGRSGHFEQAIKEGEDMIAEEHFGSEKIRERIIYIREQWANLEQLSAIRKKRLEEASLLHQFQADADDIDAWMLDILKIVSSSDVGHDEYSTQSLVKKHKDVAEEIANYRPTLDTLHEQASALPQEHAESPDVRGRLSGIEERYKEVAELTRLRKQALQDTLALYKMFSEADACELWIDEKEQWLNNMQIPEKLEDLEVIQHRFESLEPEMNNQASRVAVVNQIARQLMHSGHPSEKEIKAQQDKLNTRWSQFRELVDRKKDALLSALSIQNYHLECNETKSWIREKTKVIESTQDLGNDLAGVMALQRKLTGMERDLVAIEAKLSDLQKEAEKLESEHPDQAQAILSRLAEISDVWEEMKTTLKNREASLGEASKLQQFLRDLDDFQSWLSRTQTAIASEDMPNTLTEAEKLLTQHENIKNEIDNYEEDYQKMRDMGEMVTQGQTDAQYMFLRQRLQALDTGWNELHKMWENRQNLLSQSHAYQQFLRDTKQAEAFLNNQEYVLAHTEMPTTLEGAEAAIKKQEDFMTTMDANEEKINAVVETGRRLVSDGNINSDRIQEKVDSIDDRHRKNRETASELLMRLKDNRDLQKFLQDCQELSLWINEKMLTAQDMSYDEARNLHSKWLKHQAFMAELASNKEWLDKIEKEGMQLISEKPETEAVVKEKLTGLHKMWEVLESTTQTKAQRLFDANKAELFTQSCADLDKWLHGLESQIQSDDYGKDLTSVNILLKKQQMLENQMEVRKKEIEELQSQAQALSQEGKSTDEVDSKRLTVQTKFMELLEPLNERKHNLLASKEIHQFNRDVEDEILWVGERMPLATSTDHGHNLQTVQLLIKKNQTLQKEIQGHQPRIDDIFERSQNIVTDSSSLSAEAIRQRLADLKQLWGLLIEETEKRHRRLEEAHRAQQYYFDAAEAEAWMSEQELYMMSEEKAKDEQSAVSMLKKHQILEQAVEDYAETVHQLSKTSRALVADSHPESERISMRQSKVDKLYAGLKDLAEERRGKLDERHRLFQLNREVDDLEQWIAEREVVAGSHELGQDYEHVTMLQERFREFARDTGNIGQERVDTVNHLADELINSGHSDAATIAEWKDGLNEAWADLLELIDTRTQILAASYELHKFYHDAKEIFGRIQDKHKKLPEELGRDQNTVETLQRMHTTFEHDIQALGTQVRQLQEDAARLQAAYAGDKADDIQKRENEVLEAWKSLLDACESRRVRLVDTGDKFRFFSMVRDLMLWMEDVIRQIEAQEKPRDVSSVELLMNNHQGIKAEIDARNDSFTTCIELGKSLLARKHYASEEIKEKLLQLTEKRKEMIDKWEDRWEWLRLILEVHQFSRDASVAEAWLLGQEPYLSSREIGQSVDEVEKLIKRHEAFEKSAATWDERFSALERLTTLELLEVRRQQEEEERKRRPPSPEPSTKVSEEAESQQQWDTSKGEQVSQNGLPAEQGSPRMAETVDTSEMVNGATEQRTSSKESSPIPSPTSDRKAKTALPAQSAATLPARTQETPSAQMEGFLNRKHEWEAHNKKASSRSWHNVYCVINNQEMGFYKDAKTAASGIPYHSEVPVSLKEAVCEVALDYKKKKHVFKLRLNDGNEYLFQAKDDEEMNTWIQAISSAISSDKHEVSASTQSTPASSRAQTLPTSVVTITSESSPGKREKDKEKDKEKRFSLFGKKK
UniProt Q03111: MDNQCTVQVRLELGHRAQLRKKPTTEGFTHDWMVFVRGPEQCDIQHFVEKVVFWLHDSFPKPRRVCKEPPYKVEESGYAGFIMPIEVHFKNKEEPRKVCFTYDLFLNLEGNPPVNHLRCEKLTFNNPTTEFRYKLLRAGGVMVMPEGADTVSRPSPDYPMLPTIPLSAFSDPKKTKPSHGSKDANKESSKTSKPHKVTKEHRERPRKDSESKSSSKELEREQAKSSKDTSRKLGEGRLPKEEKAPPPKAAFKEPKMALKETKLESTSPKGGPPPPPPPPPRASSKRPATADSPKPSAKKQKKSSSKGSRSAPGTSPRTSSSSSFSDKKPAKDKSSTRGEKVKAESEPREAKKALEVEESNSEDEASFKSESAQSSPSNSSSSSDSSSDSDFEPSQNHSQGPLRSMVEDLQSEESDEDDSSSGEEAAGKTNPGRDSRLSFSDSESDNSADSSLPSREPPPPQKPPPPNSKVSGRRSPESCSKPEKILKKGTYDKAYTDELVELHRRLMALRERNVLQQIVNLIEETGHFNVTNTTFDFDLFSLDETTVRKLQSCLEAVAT
UniProt Q13257, whole entry: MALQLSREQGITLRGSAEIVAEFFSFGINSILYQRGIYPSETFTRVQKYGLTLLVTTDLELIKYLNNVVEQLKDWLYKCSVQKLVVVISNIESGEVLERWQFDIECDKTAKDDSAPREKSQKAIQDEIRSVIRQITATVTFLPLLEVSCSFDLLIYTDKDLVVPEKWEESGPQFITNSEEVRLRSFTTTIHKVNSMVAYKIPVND
UniProt Q13422: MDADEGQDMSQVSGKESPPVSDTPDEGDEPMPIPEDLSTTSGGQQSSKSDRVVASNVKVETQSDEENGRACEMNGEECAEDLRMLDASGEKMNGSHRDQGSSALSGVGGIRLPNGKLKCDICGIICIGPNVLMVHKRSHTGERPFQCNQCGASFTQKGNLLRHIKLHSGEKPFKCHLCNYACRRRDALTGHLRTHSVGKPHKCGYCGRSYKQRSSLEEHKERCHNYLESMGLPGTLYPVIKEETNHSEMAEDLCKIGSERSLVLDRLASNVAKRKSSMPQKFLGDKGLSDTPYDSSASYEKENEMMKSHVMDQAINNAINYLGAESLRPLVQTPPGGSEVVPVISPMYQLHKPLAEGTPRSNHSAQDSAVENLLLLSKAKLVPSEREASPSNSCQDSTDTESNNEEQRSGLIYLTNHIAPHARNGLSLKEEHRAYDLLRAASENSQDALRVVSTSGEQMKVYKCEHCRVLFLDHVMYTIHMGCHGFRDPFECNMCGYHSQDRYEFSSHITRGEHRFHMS
UniProt Q09161: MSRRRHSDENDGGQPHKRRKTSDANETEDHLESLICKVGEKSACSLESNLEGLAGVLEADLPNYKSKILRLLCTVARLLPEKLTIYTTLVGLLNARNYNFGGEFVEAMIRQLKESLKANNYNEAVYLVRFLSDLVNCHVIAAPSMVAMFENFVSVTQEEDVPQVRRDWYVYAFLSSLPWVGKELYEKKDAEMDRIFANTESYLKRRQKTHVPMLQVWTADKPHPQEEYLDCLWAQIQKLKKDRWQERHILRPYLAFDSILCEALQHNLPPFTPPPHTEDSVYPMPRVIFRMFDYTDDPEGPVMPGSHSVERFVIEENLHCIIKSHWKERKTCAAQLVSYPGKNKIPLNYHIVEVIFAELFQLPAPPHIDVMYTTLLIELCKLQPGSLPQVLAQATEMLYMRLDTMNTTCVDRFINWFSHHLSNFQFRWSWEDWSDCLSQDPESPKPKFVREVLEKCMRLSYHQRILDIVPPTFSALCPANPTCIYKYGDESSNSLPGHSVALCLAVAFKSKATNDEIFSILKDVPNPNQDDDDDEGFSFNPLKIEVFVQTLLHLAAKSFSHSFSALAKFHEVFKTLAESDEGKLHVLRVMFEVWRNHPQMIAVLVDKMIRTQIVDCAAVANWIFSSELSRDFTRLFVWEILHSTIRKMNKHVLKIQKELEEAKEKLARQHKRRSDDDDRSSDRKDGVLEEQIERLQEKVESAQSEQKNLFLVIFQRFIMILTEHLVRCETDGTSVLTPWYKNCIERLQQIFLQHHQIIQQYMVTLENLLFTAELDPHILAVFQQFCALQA
UniProt Q13347, whole entry: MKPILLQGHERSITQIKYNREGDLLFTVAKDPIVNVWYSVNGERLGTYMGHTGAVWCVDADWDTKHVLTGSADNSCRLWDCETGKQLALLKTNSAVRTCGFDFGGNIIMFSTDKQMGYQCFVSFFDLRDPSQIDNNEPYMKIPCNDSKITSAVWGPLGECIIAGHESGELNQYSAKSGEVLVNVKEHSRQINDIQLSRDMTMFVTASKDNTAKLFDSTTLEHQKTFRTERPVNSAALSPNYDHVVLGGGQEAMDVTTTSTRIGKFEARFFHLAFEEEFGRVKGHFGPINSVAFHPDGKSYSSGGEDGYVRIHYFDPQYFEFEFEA
UniProt Q13148, whole entry: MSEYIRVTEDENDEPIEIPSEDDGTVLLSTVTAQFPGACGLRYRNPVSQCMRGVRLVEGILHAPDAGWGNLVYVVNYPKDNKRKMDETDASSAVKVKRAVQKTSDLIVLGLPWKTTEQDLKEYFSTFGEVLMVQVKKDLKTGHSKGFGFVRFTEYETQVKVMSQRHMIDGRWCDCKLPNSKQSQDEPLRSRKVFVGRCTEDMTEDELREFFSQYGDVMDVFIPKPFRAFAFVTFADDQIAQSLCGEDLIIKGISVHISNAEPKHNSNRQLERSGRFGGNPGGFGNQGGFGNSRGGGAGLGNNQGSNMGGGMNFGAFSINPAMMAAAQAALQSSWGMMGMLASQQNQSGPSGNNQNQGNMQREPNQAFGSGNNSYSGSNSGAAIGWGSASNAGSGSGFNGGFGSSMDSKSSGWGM

Compound: Nc1nc2c(ncn2[C@@H]2O[C@H](COP(=O)(O)OP(=O)(O)OP(=O)(O)O)[C@@H](O)[C@H]2O)c(=O)[nH]1 [guanosine triphosphate]
Experiment: NP40-soluble protein abundance relative to vehicle (solubility fold change) (ratio); higher = more soluble protein in presence of GTP
Procedure, shortened: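 In three independent experiments, Jurkat crude lysate made by Dounce homogenisation was treated for 10 min at room temperature and then 3 min at 37 °C with eight concentrations ranging from 0.1 to 10 mM. It was then solubilised with 0.8% NP40 plus benzonase for 60 min at 4 °C and ultracentrifuged. The supernatant was TMT-labelled for LC-MS/MS, and each value is the fold change against the detergent-processed vehicle for the same replicate, using vsn-normalised intensities.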

Target	NP40-soluble protein abundance (concentration: 0.1mM)	NP40-soluble protein abundance (concentration: 0.5mM)	NP40-soluble protein abundance (concentration: 1mM)	NP40-soluble protein abundance (concentration: 2mM)	NP40-soluble protein abundance (concentration: 4mM)	NP40-soluble protein abundance (concentration: 6mM)	NP40-soluble protein abundance (concentration: 8mM)	NP40-soluble protein abundance (concentration: 10mM)
UniProt Q00839 and related entries	1.02 ± 0.049	1.12 ± 0.11	1.16 ± 0.19	1.21 ± 0.23	1.27 ± 0.3	1.26 ± 0.29	1.29 ± 0.33	1.2 ± 0.29
UniProt Q12931 and related entries	1.07 ± 0.041	1.07 ± 0.066	0.921 ± 0.013	1.01 ± 0.12	0.913 ± 0.066	0.906 ± 0.044	0.857 ± 0.055	0.826 ± 0.11
UniProt Q06547 and related entries	1.02 ± 0.098	0.988 ± 0.11	1.01 ± 0.1	1.01 ± 0.17	0.932 ± 0.13	0.954 ± 0.13	0.981 ± 0.1	0.986 ± 0.11
PPID (UniProt Q08752)	0.937 ± 0.034	0.909 ± 0.045	0.914 ± 0.048	0.864 ± 0.075	0.841 ± 0.073	0.846 ± 0.074	0.842 ± 0.052	0.841 ± 0.068
MDC1 (UniProt Q14676)	1.1 ± 0.024	1.14 ± 0.042	1.23 ± 0.053	1.41 ± 0.11	1.66 ± 0.17	1.77 ± 0.21	1.86 ± 0.29	1.92 ± 0.36
UniProt Q01968 and related entries	1.22 ± 0.11	1.16 ± 0.049	1.06 ± 0.087	1.06 ± 0.067	1.1 ± 0.018	1.04 ± 0.03	1.11 ± 0.068	0.993 ± 0.068
TRIM25 (UniProt Q14258)	1.01 ± 0.02	1.04 ± 0.036	0.983 ± 0.016	0.987 ± 0.022	0.95 ± 0.024	0.966 ± 0.039	0.947 ± 0.037	0.937 ± 0.05
FAM50A (UniProt Q14320)	0.894 ± 0.048	0.919 ± 0.031	0.885 ± 0.059	0.853 ± 0.068	0.846 ± 0.095	0.877 ± 0.095	0.868 ± 0.082	0.867 ± 0.081
UniProt Q01082 and related entries	0.93 ± 0.067	0.978 ± 0.069	0.963 ± 0.067	0.956 ± 0.069	1.04 ± 0.07	1.17 ± 0.074	1.27 ± 0.08	1.31 ± 0.097
CKAP4 (UniProt Q07065)	0.997 ± 0.085	0.942 ± 0.1	1.04 ± 0.067	1.04 ± 0.095	1.12 ± 0.11	1.1 ± 0.12	1.11 ± 0.12	1.14 ± 0.08
MLLT1 (UniProt Q03111)	0.99 ± 0.053	0.972 ± 0.071	0.988 ± 0.11	0.954 ± 0.11	0.961 ± 0.091	0.976 ± 0.091	0.994 ± 0.026	1.03 ± 0.091
UniProt Q13310-3|Q13310	0.95 ± 0.054	0.998 ± 0.05	0.964 ± 0.025	0.988 ± 0.042	0.987 ± 0.013	1.033 ± 0.0067	1.03 ± 0.025	1.06 ± 0.012
MAD2L1 (UniProt Q13257)	1.04 ± 0.073	1.04 ± 0.098	0.948 ± 0.046	0.946 ± 0.1	0.921 ± 0.088	0.899 ± 0.066	0.851 ± 0.016	0.84 ± 0.082
UniProt Q13422 and related entries	0.987 ± 0.044	0.997 ± 0.038	1.01 ± 0.016	1 ± 0.029	1.02 ± 0.018	1.063 ± 0.0066	1.11 ± 0.021	1.13 ± 0.045
TTLL12 (UniProt Q14166)	1.02 ± 0.028	1.05 ± 0.053	0.932 ± 0.015	0.957 ± 0.043	0.95 ± 0.021	0.929 ± 0.034	0.892 ± 0.041	0.88 ± 0.062
PWP1 (UniProt Q13610)	1.04 ± 0.038	1.04 ± 0.054	0.959 ± 0.069	0.966 ± 0.06	0.979 ± 0.097	0.99 ± 0.1	0.986 ± 0.12	0.986 ± 0.1
KRR1 (UniProt Q13601)	1.06 ± 0.035	1.07 ± 0.02	1.08 ± 0.045	1.13 ± 0.044	1.16 ± 0.056	1.14 ± 0.086	1.17 ± 0.05	1.18 ± 0.065
UniProt Q13439-5	0.971 ± 0.054	0.96 ± 0.069	0.99 ± 0.072	0.958 ± 0.1	0.954 ± 0.072	0.946 ± 0.074	0.995 ± 0.046	0.975 ± 0.072
UniProt Q13303-2	1.05 ± 0.045	1.06 ± 0.11	0.954 ± 0.086	1 ± 0.14	0.984 ± 0.11	0.973 ± 0.14	0.898 ± 0.024	0.904 ± 0.043
MGAT2 (UniProt Q10469)	1.05 ± 0.063	1.02 ± 0.09	1.02 ± 0.032	1.02 ± 0.019	1.05 ± 0.016	0.987 ± 0.11	1.009 ± 0.01	1.01 ± 0.022
TRIM28 (UniProt Q13263)	0.981 ± 0.041	0.98 ± 0.028	0.988 ± 0.061	0.948 ± 0.058	0.944 ± 0.06	0.95 ± 0.06	0.97 ± 0.035	0.939 ± 0.04
CRYZ (UniProt Q08257)	1.03 ± 0.05	1.03 ± 0.075	0.937 ± 0.012	0.947 ± 0.089	0.895 ± 0.036	0.908 ± 0.054	0.878 ± 0.0092	0.845 ± 0.023
TMED1 (UniProt Q13445)	1.01 ± 0.068	0.98 ± 0.073	1 ± 0.13	0.967 ± 0.1	1 ± 0.13	0.948 ± 0.14	1.01 ± 0.12	0.904 ± 0.13
CBX3 (UniProt Q13185)	0.872 ± 0.038	0.872 ± 0.039	0.987 ± 0.054	0.959 ± 0.045	0.955 ± 0.038	0.989 ± 0.044	1.02 ± 0.092	1.07 ± 0.072
NCBP1 (UniProt Q09161)	1 ± 0.036	1.04 ± 0.064	1.01 ± 0.077	1.06 ± 0.12	1.08 ± 0.14	1.09 ± 0.12	1.07 ± 0.1	1.09 ± 0.062
UniProt Q13042 and related entries	1.11 ± 0.067	1.16 ± 0.18	1.09 ± 0.14	1.17 ± 0.22	1.24 ± 0.24	1.2 ± 0.23	1.18 ± 0.22	1.13 ± 0.24
EIF3I (UniProt Q13347)	1.02 ± 0.04	1.03 ± 0.091	0.993 ± 0.089	1.04 ± 0.15	1.13 ± 0.19	1.26 ± 0.26	1.32 ± 0.23	1.4 ± 0.29
KHDRBS1 (UniProt Q07666)	0.919 ± 0.033	0.93 ± 0.032	0.989 ± 0.042	0.968 ± 0.052	1.01 ± 0.074	1.03 ± 0.057	1.1 ± 0.087	1.11 ± 0.085
TARDBP (UniProt Q13148)	0.992 ± 0.053	1.02 ± 0.04	0.963 ± 0.052	0.925 ± 0.046	0.895 ± 0.053	0.954 ± 0.06	0.933 ± 0.02	0.907 ± 0.038
MTMR2 (UniProt Q13614)	1.05 ± 0.16	1.07 ± 0.14	1.01 ± 0.1	1 ± 0.074	0.993 ± 0.085	1.02 ± 0.12	0.953 ± 0.099	0.915 ± 0.1

Exported as labelled records: entries from further up
EIF3I (UniProt Q13347)
  NP40-soluble protein abundance (concentration: 0.1mM): 1.02 ± 0.04; NP40-soluble protein abundance (concentration: 0.5mM): 1.03 ± 0.091; NP40-soluble protein abundance (concentration: 1mM): 0.993 ± 0.089; NP40-soluble protein abundance (concentration: 2mM): 1.04 ± 0.15; NP40-soluble protein abundance (concentration: 4mM): 1.13 ± 0.19; NP40-soluble protein abundance (concentration: 6mM): 1.26 ± 0.26; NP40-soluble protein abundance (concentration: 8mM): 1.32 ± 0.23; NP40-soluble protein abundance (concentration: 10mM): 1.4 ± 0.29
KHDRBS1 (UniProt Q07666)
  NP40-soluble protein abundance (concentration: 0.1mM): 0.919 ± 0.033; NP40-soluble protein abundance (concentration: 0.5mM): 0.93 ± 0.032; NP40-soluble protein abundance (concentration: 1mM): 0.989 ± 0.042; NP40-soluble protein abundance (concentration: 2mM): 0.968 ± 0.052; NP40-soluble protein abundance (concentration: 4mM): 1.01 ± 0.074; NP40-soluble protein abundance (concentration: 6mM): 1.03 ± 0.057; NP40-soluble protein abundance (concentration: 8mM): 1.1 ± 0.087; NP40-soluble protein abundance (concentration: 10mM): 1.11 ± 0.085
